Patent US20240050583A1, “PROTEIN-DRUG CONJUGATE AND SITE-SPECIFIC CONJUGATING METHOD” (HARBOUR BIOMED (SHANGHAI) CO., LTD, priority 2020, published 2024)

Assay: Molecular weight and coupling product components (DAR) by LC-MS
Conditions: coupling product without HIC purification, protein 4.1 mg/mL
Source text: In this example, liquid chromatography-mass spectrometry (LC-MS) was used to analyze the protein sample for molecular weight. Those skilled in the art can use different models of liquid chromatography (LC) and mass spectrometer (MS) to establish similar analytical methods according to the technical instructions and through experimental exploration. Only representative methods are listed in this example.
In certain specific embodiments, determination of the molecular weight of a protein sample required desaccharification on the sample to remove modifications such as saccharide chains, for example, the sample was processed with glycosidase PNGase F (NEB, #P0705L) at 37° C. for at least 4 h. For example, in all examples of the present invention, when the molecular weight of protein samples was determined, unless otherwise emphasized, the protein samples to be tested were subjected to desaccharification by the glycosidase PNGase F.
In certain specific embodiments, determination of the reduced molecular weight of a protein sample required reduction on the sample, for example, the sample was processed with […] dithiothreitol (DTT) at 37° C. for 10 min. For example, in all examples of the present invention, the samples after reduction were called reduced samples, and the samples without reduction were called non-reduced samples.
Buffer A was 0.1% formic acid FA dissolved in water, and buffer B was 0.1% formic acid FA dissolved in acetonitrile. Injection: about 1 μg; flow rate: 0.3 mL/min; and operation temperature: 80° C. When reduced samples were tested, buffer A and buffer B were mixed within 12 min to form a linear gradient: using 10-60% B for the first 8 min and 80% B for the last 4 min. When non-reduced samples were tested, buffer A and buffer B were mixed within 9 min to form a linear gradient: using 15-60% B for the first 6 min and 80% B for the last 3 min.
Buffer A was 0.1% formic acid FA dissolved in water, and buffer B was 0.1% formic acid FA dissolved in acetonitrile. Injection: about 10 μL; flow rate: 0.2-0.5 mL/min; and operation temperature: 80° C. […]

“PR006345: SIRPa-Fc fusion protein: ALX148 SIRPa variant fused with human IgG1 hinge and Fc, SEQ ID NO: 149” showed a D2% (Experiment 1, TCEP 1.5 equivalents) of 88%, a D2% (Experiment 2, TCEP 2.0 equivalents) of 89% and a D2% (Experiment 3, TCEP 3.0 equivalents) of 74%.
